# Reference: PubChem BioAssay
# The list shows a part of the results. Results with a measured potency or affinity are listed apart. Where no call is shown, the source marks the result inconclusive.
# Assay: protection from polyQ Htt cytotoxicity, dose response, PC12 cells, LDH release, LDH100 (AID 1596)
# Settings: PC12 polyQ huntingtin toxicity; normalized LDH release: at 100 µM (top of the series); normalized LDH release (lower = protection): at 100 µM, stronger effect = lower value
row,SMILES,normalized LDH release (lower = protection)
1,COc1ccc(/C=C/c2cc(O)cc(O[C@@H]3O[C@H](CO)[C@@H](O)[C@H](O)[C@H]3O)c2)cc1O,1.13
2,CC(=O)[C@H]1CCC2C3CCC4=CC(=O)CC[C@]4(C)C3CC[C@@]21C (some centres undefined),0.4
3,CN(C)CCCN1c2ccccc2Sc2ccc(Cl)cc21,0.988
4,CC1=C(/C=C/C(C)=C/C=C/C(C)=C/C=C/C=C(C)/C=C/C=C(C)/C=C/C2=C(C)CCCC2(C)C)C(C)(C)CCC1,0.406
5,COC(=O)[C@H]1[C@H]2C[C@H]3c4[nH]c5ccccc5c4CCN3C[C@H]2CC[C@@H]1O,-0.228
6,CN(C)CC/C=C1/c2ccccc2COc2ccccc21,0.639
7,C[C@H](CCC(=O)O)[C@H]1CCC2C3C(CC[C@@]21C)[C@@]1(C)CC[C@@H](O)C[C@H]1C[C@@H]3O (some centres undefined),0.483
8,COC(=O)C(N)CS (centres undefined),0.504
9,Nc1ccn(C2O[C@H](CO)[C@@H](O)[C@H]2O)c(=O)n1 (some centres undefined),0.895
10,NC(=O)c1cccc(N)c1,0.864
11,NC(=O)c1ccc([N+](=O)[O-])cc1Cl,1.03
12,NC(=O)NC(=O)Cc1ccccc1,0.551
13,CC1(C)S[C@@H]2[C@H](NC(=O)COc3ccccc3)C(=O)N2[C@H]1C(=O)O,0.593
14,O=C1NC(=O)C(c2ccccc2)(c2ccccc2)N1,0.724
15,Cc1noc(NS(=O)(=O)c2ccc(N)cc2)c1C,0.399
16,c1ccc(CC2=NCCN2)cc1,0.753
17,C[C@@H]1CC2C3CCC4=CC(=O)C=C[C@]4(C)[C@@]3(F)[C@@H](O)C[C@]2(C)[C@@]1(O)C(=O)CO (some centres undefined),0.352
18,NCC1CCC(N)C(OC2C(N)CC(N)C(OC3OC(CO)C(O)C(N)C3O)C2O)O1 (centres undefined),1.02
19,O=C1OC(c2ccc(O)cc2)(c2ccc(O)cc2)c2ccccc21,0.737
20,CC12CCC3c4ccc(OCc5ccccc5)cc4CCC3C1C[C@@H](O)[C@@H]2O (some centres undefined),1.15

# Single entries from the list.
# Value of Cc1noc(NS(=O)(=O)c2ccc(N)cc2)c1C under normalized LDH release (lower = protection): 0.399
# Value of C[C@H](CCC(=O)O)[C@H]1CCC2C3C(CC[C@@]21C)[C@@]1(C)CC[C@@H](O)C[C@H]1C[C@@H]3O (some centres undefined) under normalized LDH release (lower = protection): 0.483

# Additional compounds

row,SMILES,normalized LDH release (lower = protection)
1,CCCCN1CCCCC1C(=O)Nc1c(C)cccc1C (centres undefined),0.865
2,N.N.O=C(O)C1(C(=O)O)CCC1.[Pt],0.917
3,COc1ccc(C2C(=O)c3ccccc3C2=O)cc1,-0.066
4,COC1=C2C[C@@H](C)C[C@H](OC)[C@H](O)[C@@H](C)/C=C(\C)[C@@H](OC(N)=O)[C@H](OC)/C=C\C=C(/C)C(=O)NC(=CC1=O)C2=O,1.02
5,O=c1ccn([C@@H]2O[C@H](COP(=O)(O)OP(=O)(O)OP(=O)(O)O)[C@@H](O)[C@H]2O)c(=O)[nH]1,0.676
6,COc1c(OC)c2occc2c2oc(=O)ccc12,1.11
7,CN=C(NC#N)NCCSCc1nc[nH]c1C,0.77
8,Cc1ccccc1OCC(O)CO (centres undefined),0.867
9,CC(C)(C)NC[C@@H](O)COc1nsnc1N1CCOCC1,0.655
10,COc1cc(NC(C)CCCN)c2ncccc2c1 (centres undefined),0.941
11,CC[C@H](C)C(=O)O[C@H]1CCC=C2C=C[C@H](C)C(CCC3C[C@@H](O)CC(=O)O3)[C@H]21 (some centres undefined),1.16
12,CCC(=O)OCC(=O)C1(OC(=O)CC)C(C)CC2C3CCC4=CC(=O)C=CC4(C)C3(Cl)C(O)CC21C (centres undefined),0.379
13,N#Cc1ccc2c(c1)N(CCCN1CCC(O)CC1)c1ccccc1S2,0.502
14,CC(=O)O[C@H]1C[C@@]2(C)[C@@H](C[C@@H](O)C3[C@]2(C)CC[C@H]2[C@H](C)[C@H](O)CC[C@]32C)/C1=C(/CCC=C(C)C)C(=O)O (some centres undefined),0.553
15,CC(C)C[C@@H](NC(=O)OCC1c2ccccc2-c2ccccc21)C(=O)O,1.1
16,C=C1CC[C@H](O)C/C1=C/C=C1\CCC[C@]2(C)C([C@H](C)/C=C/[C@H](C)C(C)C)CC[C@@H]12 (some centres undefined),0.491
17,CC[C@H]1CN2CCc3cc(OC)c(OC)cc3C2C[C@@H]1CC1NCCc2cc(OC)c(OC)cc21 (some centres undefined),0.652
18,CC(C)CC(NC(=O)CCN)C(=O)O (centres undefined),0.773
19,CCCCCCc1ccc(O)cc1O,0.652
